Assay results published in patent US7799800B2, “Lipid-modified immune response modifiers” (3M Innovative Properties Company, priority 2003, dated 2010).
Some of these results come from one statement about several compounds together.

system: human peripheral blood mononuclear cells (PBMC); IFN-α and TNF-α secreted into culture media; assay: Cytokine Induction in Human Cells; assay type: cell-based; settings: 30-0.014 μM, 18 to 24 hours

Row | Structure (SMILES) | interferon induction | tumor necrosis factor induction
1 | CCCCCCCCCCCCCCCC(=O)NCCOCCn1c(CCOC)nc2c(N)nc3ccccc3c21 [Example 1, N-(2-{2-[4-amino-2-(2-methoxyethyl)-1H-imidazo[4,5-c]quinolin-1-yl]ethoxy}ethyl)hexadecanamide] | induced | induced
2 | CCCCCCCCCCCCCCCCCC(=O)NCCOCCn1c(CCOC)nc2c(N)nc3ccccc3c21 [Example 2, N-(2-{2-[4-amino-2-(2-methoxyethyl)-1H-imidazo[4,5-c]quinolin-1-yl]ethoxy}ethyl)octadecanamide] | induced | induced
3 | CCCCCCCCCCCC(=O)NCCOCCn1c(CCOC)nc2c(N)nc3ccccc3c21 [Example 3, N-(2-{2-[4-amino-2-(2-methoxyethyl)-1H-imidazo[4,5-c]quinolin-1-yl]ethoxy}ethyl)dodecanamide] | induced | induced
4 | CCCCCCCCCCCCCC(=O)NCCOCCn1c(CCOC)nc2c(N)nc3ccccc3c21 [Example 4, N-(2-{2-[4-amino-2-(2-methoxyethyl)-1H-imidazo[4,5-c]quinolin-1-yl]ethoxy}ethyl)tetradecanamide] | induced | induced
